# Test results: article PMC7819943, “Rice protein-binding microarrays: a tool to detect cis-acting elements near promoter regions in rice”
# Sequences of proteins named here, by UniProt entry; tags and fusion partners are left off.
# UniProt Q0JBA9, entry or part of it: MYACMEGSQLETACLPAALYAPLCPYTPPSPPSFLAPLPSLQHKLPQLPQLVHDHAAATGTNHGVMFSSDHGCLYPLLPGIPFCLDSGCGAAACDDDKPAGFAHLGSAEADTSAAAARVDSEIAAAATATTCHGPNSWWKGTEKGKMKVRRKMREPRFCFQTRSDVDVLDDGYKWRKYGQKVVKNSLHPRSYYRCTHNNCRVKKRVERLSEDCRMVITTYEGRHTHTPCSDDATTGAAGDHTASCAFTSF
# The other results are listed elsewhere or left out.
# Biological target: OsWRKY34 (Oryza sativa, UniProt Q0JBA9 1-250)
# Assay: protein-binding microarray (RPBM); PBS, 2% BSA, 51.3 ng/ul salmon testes DNA, 50 uM zinc acetate, 200 nM TF, 25 C, 1 h; high values mean tight binding
# Conditions: protein: recombinant; tags: N-terminal polyhistidine and DsRed monomer fusion (pET32a); label: CyDye5-dUTP incorporated in the synthesized complementary strand; 3' TTTTT single-stranded linker to array surface; dsDNA, one strand shown
# Summary of the method: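 Binding signal here means per-feature fluorescence intensity in arbitrary units. The values were read on an Axon 4000B scanner after a custom Agilent array, double-stranded by primer extension with Cy5-dUTP, was incubated with 200 nM protein at 25 °C for 1 h in PBS with 2% BSA, salmon testes DNA and 50 µM zinc acetate, then washed. The proteins were transcription factors with an N-terminal polyhistidine tag and DsRed, expressed in E. coli BL21-CodonPlus and purified on Ni–NTA.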
row,Sequence,binding signal
1,AGTAATTTTGTTCTGATTGCATGTCTCAACAGGATGTAGACGGAGTCACCTAGTGCAG,8550 fluorescence intensity (a.u.)
2,CGTTTTGTGCTGGGCCATATTGGGCTTTACCATAACTTTCCGGAGTCACCTAGTGCAG,9850 fluorescence intensity (a.u.)
3,GAGTTTTTACTTTGTAATGTTTGACCACTCGTCTTATTCACGGAGTCACCTAGTGCAG,8880 fluorescence intensity (a.u.)
4,TGGTCTGGCAGTTTTTGAGACGGGGAGTTGACTCAGATATCGGAGTCACCTAGTGCAG,9260 fluorescence intensity (a.u.)
5,TGTAATTTCCTACCGTGTTTTTCTACACTTTATCACCAATCGGAGTCACCTAGTGCAG,8190 fluorescence intensity (a.u.)
6,TCCGTCCTTTGCAAGCCAAATTCCTCCCGCCGCCGCCGCCCGGAGTCACCTAGTGCAG,8170 fluorescence intensity (a.u.)
7,GCTAGATTGGATAAGGAGGGGAGGAGGGTGGAGGGGAGGGCGGAGTCACCTAGTGCAG,22700 fluorescence intensity (a.u.)
8,CTGATTACACCTTTTTGCAGTTTAGCATTGCCACATAATCCGGAGTCACCTAGTGCAG,13500 fluorescence intensity (a.u.)
9,ATCGCTTTAATATTCTTGCTCGTTATTCCTCCACCAGGTGCGGAGTCACCTAGTGCAG,8940 fluorescence intensity (a.u.)
10,AAATTTATTGTTTGGCTGGAAGACGTGGGGTTTTAAGAGGCGGAGTCACCTAGTGCAG,8370 fluorescence intensity (a.u.)
11,GTGCTGTTTTTATCGTCCAGGTCTTGGTACAGGTTTAGTCCGGAGTCACCTAGTGCAG,10700 fluorescence intensity (a.u.)
12,GATCGAGTCGTGGGTGTGCATGGTGTGCGTGGCGTCGGTTCGGAGTCACCTAGTGCAG,8290 fluorescence intensity (a.u.)
13,ACCGACACCAGGGGCCCACATACGCACGCACCTCGCACGTCGGAGTCACCTAGTGCAG,8810 fluorescence intensity (a.u.)
14,TTTTTCCTTTTTCTCTTTTCTTTTTTTCTTCTCTTTTTCTCGGAGTCACCTAGTGCAG,9820 fluorescence intensity (a.u.)
15,TGGGTTTCTAATGGTGGGGTTAGAGCTGGAAGGCGGAGATCGGAGTCACCTAGTGCAG,8330 fluorescence intensity (a.u.)
16,CTTCCGCCAACCGCCCACCACCCGTTCGACCATTTGCTTGCGGAGTCACCTAGTGCAG,8740 fluorescence intensity (a.u.)
17,AGTGCGATCTCAAGCATGCACATGTTTCTTTAGATTGTTCCGGAGTCACCTAGTGCAG,8190 fluorescence intensity (a.u.)
18,ACTTTTGTTTCATTGTTAGCCCATAGTTCCTTTTTGTATTCGGAGTCACCTAGTGCAG,11400 fluorescence intensity (a.u.)
19,CCGACATAACCACCTTCATGCCGCCGCCGCCGTTCGCCGGCGGAGTCACCTAGTGCAG,10400 fluorescence intensity (a.u.)
20,GCTGCTAACCTCGCCCCACTTTCCCCGCCTCGGGTCGCGCCGGAGTCACCTAGTGCAG,8480 fluorescence intensity (a.u.)
21,TTTCTCGGGTTGCTACTGTTCATTGCGCGCCAGGTGTTCGCGGAGTCACCTAGTGCAG,9970 fluorescence intensity (a.u.)
22,GGTCTGGTTTTATCGGTTTATATGTGTGTGTTTTTTTTGTCGGAGTCACCTAGTGCAG,33500 fluorescence intensity (a.u.)
23,CCTTTGTCGTTTCCATATAGAACTCTGGTTGTCTTTCTTTCGGAGTCACCTAGTGCAG,11600 fluorescence intensity (a.u.)
24,TCACTTTGACCATTAATATTTTTAAACTACAATGTCTCTACGGAGTCACCTAGTGCAG,8220 fluorescence intensity (a.u.)
25,TTCTTCACACACACACACGGCCTCGTGGCTTCGCGACTCCCGGAGTCACCTAGTGCAG,9340 fluorescence intensity (a.u.)
26,AGCCATCTATCACCATGGCTGAAGCCATGTTATATATATCCGGAGTCACCTAGTGCAG,8560 fluorescence intensity (a.u.)
27,CCCTTTCACATGTCACCTCTGACCCACAAACAAACCCTTTCGGAGTCACCTAGTGCAG,8210 fluorescence intensity (a.u.)

row,Sequence,binding signal
1,CCCTGTAAACATCACCTACTTTGATCTCTCAAATAATTCTCGGAGTCACCTAGTGCAG,9180 fluorescence intensity (a.u.)
2,ACATGTTTTTTTTTTCTCGAACATTTTTCGCCGCTGTTTTCGGAGTCACCTAGTGCAG,11000 fluorescence intensity (a.u.)
3,AAAGTCAGGGTGAGTGATGTCTGGTTTTTAGCTTCAGGGGCGGAGTCACCTAGTGCAG,8040 fluorescence intensity (a.u.)
4,CGTCGGTTACCTTCCGTTCCGTTGCCTCTCTCTCTCTCTCCGGAGTCACCTAGTGCAG,9010 fluorescence intensity (a.u.)
5,CCACCCCACCTTTCTTCCGCATCCTACCCGGTTCGTTTTTCGGAGTCACCTAGTGCAG,12200 fluorescence intensity (a.u.)
6,TTCTCCCACTGTCATCTTCGGCATATCCTTCTCATTGTCTCGGAGTCACCTAGTGCAG,10800 fluorescence intensity (a.u.)
7,TTCAGTTTTTTACATTTTTATGTGAATTTGGTCAAATTTTCGGAGTCACCTAGTGCAG,8990 fluorescence intensity (a.u.)
8,TGCCTCCCTCGCCATCCGCGCGGCCGTCTTCCCCAACAGCCGGAGTCACCTAGTGCAG,8230 fluorescence intensity (a.u.)
9,GGGTGGGTGATTCTTCTTCGAGGAGCTTCTTCTTGGAGCTCGGAGTCACCTAGTGCAG,11800 fluorescence intensity (a.u.)
10,GTCTCGTGGCACCTCAATTTATTAATCACTACCCCTATACCGGAGTCACCTAGTGCAG,8710 fluorescence intensity (a.u.)
11,CATGTTCACCTCCATCTGCTGTCTTAAGTTTGACTTGATCCGGAGTCACCTAGTGCAG,9950 fluorescence intensity (a.u.)
12,ATTTACTCTTAATGTTTTGGATATTTTTTTTTCTCTTTCTCGGAGTCACCTAGTGCAG,10500 fluorescence intensity (a.u.)
13,TAATAAGACGAACGGTTAAACATGTGTTAAAAAGTCAACGCGGAGTCACCTAGTGCAG,12500 fluorescence intensity (a.u.)
14,GATGCACGTCTACACTTTCCCAACTCATATCTCTCGTTTTCGGAGTCACCTAGTGCAG,9120 fluorescence intensity (a.u.)
15,AATACTTAATTAATCACGCGCTAATCGCTGCTCCGTTTTTCGGAGTCACCTAGTGCAG,8460 fluorescence intensity (a.u.)
16,TTAAAACTCAATTAATCACACGTTATTACCACCTCGTTTTCGGAGTCACCTAGTGCAG,9610 fluorescence intensity (a.u.)
17,ACTGGCTGCTTCTGTAACCCTGGCGCTTGTGCTAAGTATCCGGAGTCACCTAGTGCAG,9640 fluorescence intensity (a.u.)
18,CACCTCTTCACACAAACTGTATATGCTGTCTTTTACTTGACGGAGTCACCTAGTGCAG,9140 fluorescence intensity (a.u.)
19,GTGCAGCCGTGGATATCCGTGCCCAACGTTTGACCGTCCGCGGAGTCACCTAGTGCAG,9290 fluorescence intensity (a.u.)
20,TTTTTTGTCGGACTTTTTTCTTCATTTTTTACCTCTTTTGCGGAGTCACCTAGTGCAG,16900 fluorescence intensity (a.u.)
21,ATTTTGTCGTTGGCGTGTAATTTTCCGATCATCACAGTATCGGAGTCACCTAGTGCAG,9560 fluorescence intensity (a.u.)
22,TCATAATTTGAATTCTTCTGCGCAAATTTGTTGCCGCACTCGGAGTCACCTAGTGCAG,8890 fluorescence intensity (a.u.)
23,GGGGCGCTGACACTGCAACAATAATTTTTCTGTTTCCAACCGGAGTCACCTAGTGCAG,8110 fluorescence intensity (a.u.)
24,GCCGTCCCCGTCGCCGTGCATCAGATCATTTCATCACCGGCGGAGTCACCTAGTGCAG,10600 fluorescence intensity (a.u.)
25,CATTCTCCGCTCCTTCCGTTCCATTCCATCTCCGGTCTGACGGAGTCACCTAGTGCAG,8990 fluorescence intensity (a.u.)
26,CAGATCCGGCAGAGGCGGGAGGGGAGGCGCAGGGGCGACGCGGAGTCACCTAGTGCAG,9470 fluorescence intensity (a.u.)
27,TTTTTCTGGGTGGTGTCAAATTCAGAAGGCGTCCCAAACTCGGAGTCACCTAGTGCAG,8220 fluorescence intensity (a.u.)

# Looked up one by one from the list above, 4 records:
row,Sequence,binding signal
18,CACCTCTTCACACAAACTGTATATGCTGTCTTTTACTTGACGGAGTCACCTAGTGCAG,9140 fluorescence intensity (a.u.)
20,TTTTTTGTCGGACTTTTTTCTTCATTTTTTACCTCTTTTGCGGAGTCACCTAGTGCAG,16900 fluorescence intensity (a.u.)
2,ACATGTTTTTTTTTTCTCGAACATTTTTCGCCGCTGTTTTCGGAGTCACCTAGTGCAG,11000 fluorescence intensity (a.u.)
5,CCACCCCACCTTTCTTCCGCATCCTACCCGGTTCGTTTTTCGGAGTCACCTAGTGCAG,12200 fluorescence intensity (a.u.)
